Results are given in words; binding and its absence hold for the method and conditions named. Some entries that bind do so weakly or less than the wild type. Values belong to the binder of their own block, whether it stands above or below them.
What was measured:
Test in all cases: two-hybrid; mammalian two-hybrid; bait fused to the Gal4 DNA-binding domain (BIND), prey to the VP16 transcriptional activation domain (ACT); luciferase reporter; cultured mammalian cells, 37°C; positive from 3 times the background activity (level 1), the selected set is level 2 (>=5 to <10 times) and level 3 (>=10 times)
[1] = molecular target: PH0860, hypothetical protein (Pyrococcus horikoshii OT3) (UniProt O58590)
[2] = molecular target: PH1850, hypothetical protein (Pyrococcus horikoshii OT3) (UniProt O59506)
[3] = molecular target: PH1126, hypothetical protein (Pyrococcus horikoshii OT3) (UniProt O58853)
[4] = molecular target: T1, PH0245, 20S proteasome subunit (Pyrococcus horikoshii OT3) (UniProt O57983)
T1 sequence: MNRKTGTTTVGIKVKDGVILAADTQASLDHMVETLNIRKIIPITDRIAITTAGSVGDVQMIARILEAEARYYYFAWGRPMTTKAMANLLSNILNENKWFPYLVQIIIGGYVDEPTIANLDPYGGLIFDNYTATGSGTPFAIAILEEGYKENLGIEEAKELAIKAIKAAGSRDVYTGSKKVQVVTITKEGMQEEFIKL

[5] = molecular target: T2, PH0229, indolepyruvate ferredoxin oxidoreductase subunit (Pyrococcus horikoshii OT3) (UniProt O57968)
T2 sequence: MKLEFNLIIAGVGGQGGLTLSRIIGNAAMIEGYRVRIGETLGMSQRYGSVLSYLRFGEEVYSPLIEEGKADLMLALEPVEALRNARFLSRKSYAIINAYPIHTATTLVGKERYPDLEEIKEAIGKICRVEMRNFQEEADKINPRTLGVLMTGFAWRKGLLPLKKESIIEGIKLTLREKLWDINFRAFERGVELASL

[6] = molecular target: T3, PH0764, indolepyruvate ferredoxin oxidoreductase subunit (Pyrococcus horikoshii OT3) (UniProt O58496)
T3 sequence: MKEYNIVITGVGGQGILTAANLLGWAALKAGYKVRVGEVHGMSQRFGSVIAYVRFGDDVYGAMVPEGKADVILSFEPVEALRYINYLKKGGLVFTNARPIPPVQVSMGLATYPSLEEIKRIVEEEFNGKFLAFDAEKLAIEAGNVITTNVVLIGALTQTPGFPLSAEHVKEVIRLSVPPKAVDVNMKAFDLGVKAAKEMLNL

[7] = molecular target: PH1931, hypothetical protein (Pyrococcus horikoshii OT3) (UniProt O59594)
[8] = molecular target: PH0655, threonine-3-dehydrogenase (Pyrococcus horikoshii OT3) (UniProt O58389)
[9] = molecular target: PH1191, hypothetical protein (Pyrococcus horikoshii OT3) (UniProt O58905)
[10] = molecular target: T4, PH0490, chemotaxis protein CheD (Pyrococcus horikoshii OT3) (UniProt O58226)
T4 sequence: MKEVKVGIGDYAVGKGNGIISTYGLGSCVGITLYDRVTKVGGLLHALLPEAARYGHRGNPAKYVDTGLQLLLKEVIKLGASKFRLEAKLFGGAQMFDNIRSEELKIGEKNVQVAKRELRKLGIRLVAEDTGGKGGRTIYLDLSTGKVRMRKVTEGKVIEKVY

[11] = molecular target: T5, PH1983, AtpH, archaeal or vacuolar-type H^+-ATPase subunit H (Pyrococcus horikoshii OT3) (UniProt O57720)
T5 sequence: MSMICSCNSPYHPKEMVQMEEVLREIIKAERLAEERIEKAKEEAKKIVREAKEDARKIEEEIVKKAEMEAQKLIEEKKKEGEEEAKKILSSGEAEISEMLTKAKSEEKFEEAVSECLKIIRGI

binding [1]: binds
B1: PH0860, hypothetical protein (protein, UniProt O58590 1-221)
chain: MERLEDLFEKSKFGELILFEYNSTTPLLFIVYPLIKWAREKGYPLVIFDIFDSLTIYTKQAEMLGIKDKLYEGANIVKIGGRMNLGNIILKISIIEYGPFEKTLEDTLEKAYGERENVISIVLGTEKIFSFYPFRDQFMFSNFLALKTGDRRRKAFYFVNVDLLEKISPPMGPLLEEEFTTVVKLTKEDNKIKMKVIKSLNPELDGMELKVNAHTLIASNR

binding [2]: binds
B2: PH1850, hypothetical protein (protein, UniProt O59506 1-264)
chain: MYQEFFTFIPVDIEELDKAFGGGLIRGATISIMYDAFSLGWALGFEMVKNLIRRNSFGVIHNYNLPTIKLISRASFVGLNIQELAKRKEIMILDVFGSKYDVPPYADYVLQVPNPTPETLNPKIESVYENKIFQVAGDRRIVKLVYTLDGVATMFGEEVAIKLLNGELAWLAKMYGKRNVMTILLLNVDMVSKKFIAWTSGVSDIVITFQSLTEEREGELVERMTVIKSLNPEFEPTSYEFRVTATGTGSHALDFRKIENKRDK

binding [3]: binds
B3: PH1126, hypothetical protein (protein, UniProt O58853 1-207)
chain: MIPVKFKGATFGRLVKLEFEILRLGELKIDDISEFNTKDIKLEIRATSSGIKLIGVWEGDISEVGEAIKRALDESMKLRERLLRKMRNKVERIRKTLTEMGFSEESIGYGDAIRFTKRIGEYEVAIVVSSRDDIVRVEVYGGNKKLLAPELEAFFESVDIEELEIYDVDEDGREERVVINLELPKTDEKPEKRIIEAVKVLENILMA

binding [4]: binds
B4: PH1553, 20S proteasome subunit (protein, UniProt O59219 1-260)
chain: MAFVPPQAGYDRAITVFSPDGRLFQVNYAREAVKRGATAVGVKCNEGVVLAVEKRITSRLIEPESYEKIFQIDDHIAAASSGIIADARVLVNRARLEAQIHRLTYGEPAPLAVIVKKICDLKQMHTQYGGVRPFGAALLMAGVNEKPELYETDPSGAYFAWKAVAIGSGRNTAMAIFEEKYKDDMSLEEAIKLAIFALAKTMEKPSAENIEVAIITVKDKKFRKLSREEIEKYLNEVMKEVEEEEVKEKEEDYSELDSHY

binding [5]: binds
binding [6]: binds
B5: PH1138, indolepyruvate ferredoxin oxidoreductase subunit (protein, UniProt O58865 1-618)
chain: MGGIKVKRLLMGNEAIAYGALEAGVSFATGYPGTPSTEVIETIARLKPEVFAEWAPNEKVALEEAAGASYAGIRSLVTMKCVGLNVAADPLMSLAYSGVEGGLVVLVADDPGPHTSQTEQDDRYYGKISLLPVLEPYDPQEAHDLIKYAYELSEKYKVPIIFRTTTRVNHTTADVEVGEFKDLNRIPKFKKDIERYVRASMEGNRKRHKWLNETLKKIEEEFNNLDYNWIEGDGKIGIIVEGAPYNYVKEVLPSIEGDFKILKLSTPHPLPRKIVINFLKSVEKALVIEEGAPFLEEEIKVVAYEEGLRVPIYGKRTGYLPLEGELTPRLVKNAILKLLGKEGEEVSLPKEVEEAERLAPKRPPVMCPGCPHRGSYRALLDALRELGYGKFDIPIHGDIGCYALSLLPPLEAIWTEFVMGASISLANGQSVVMGKKIVATIGDSTFFHNGIQPLIDAVYKDLDVLVIILDNRTTAMTGHQPHPGTGGSETGRKFREIDIEALVKGIGVKYVKTVDPYDLKATKEAIKEAMKVKGPAVIIARRECVIPVIRRGETREPPIVIEDKCTGCKACILLSGCPALIYDPETRKVRIDELICTGCGICNQLCPFDAIKFREELQ

binding [7]: binds
B6: PH1931, hypothetical protein (protein, UniProt O59594 1-101)
chain: MMARGIRLLVLDVLKPHQPLVTELALGLSELEGVEGVNITLVEIDKETENIKVTIVGDNLNYDEIVRTIEEFGGVVHSIDMVAAGRKIIEEEETPQDKLEE

binding [8]: binds
B7: PH0655, threonine-3-dehydrogenase (protein, UniProt O58389 1-348)
chain: MSEKMVAIMKTKPGYGAELVEVDVPKPGPGEVLIKVLATSICGTDLHIYEWNEWAQSRIKPPQIMGHEVAGEVVEIGPGVEGIEVGDYVSVETHIVCGKCYACRRGQYHVCQNTKIFGVDTDGVFAEYAVVPAQNIWKNPKSIPPEYATLQEPLGNAVDTVLAGPISGKSVLITGAGPLGLLGIAVAKASGAYPVIVSEPSDFRRELAKKVGADYVINPFEEDVVKEVMDITDGNGVDVFLEFSGAPKALEQGLQAVTPAGRVSLLGLYPGKVTIDFNNLIIFKALTIYGITGRHLWETWYTVSRLLQSGKLNLDPIITHKYKGFDKYEEAFELMRAGKTGKVVFMLK

binding [9]: binds
B8: PH1191, hypothetical protein (protein, UniProt O58905 1-160)
chain: MHAHRSTPSFSKVIFRLFTITTLIFLTYFGYSTFAEHDPIKERLYELGYPDQGFIFTNSTIKWADGHLTIVQGTYIEDYPVTAEQAYEIARQYLASYNKKLEKYNYKLYPDKETLTEKEKDGQRYWVFELKLKTGNSDFFAGFIWVNRKTGTVSVKGLLG

binding [10]: binds
B9: PH0487, chemotaxis protein CheC (protein, UniProt O58223 1-212)
chain: MDIVDEKWEEYLKNLDEMSKSALLETFNIGASHAATALSEMTGKEVNISVPDLKIIAIKNVPEVVGEDVKVAVYIELGKDFSSHAFFIADYEDALRMFDIIMGNPLGTTKEMDEMVKSSFMEVGNILISAFANALSEFLGITIEQTPPSLAIDFLPAILDFALADIGKYCDYTIILQTNIKISDVKFEEHFLLFPKPEDMKKILEKLLGGFA

binding [11]: binds
B10: PH1978, AtpE, archaeal or vacuolar-type H^+-ATPase subunit E (protein, UniProt O57724 1-198)
chain: MNGAELIIQEINKEAERKIEYILNEARQQAEKIKEEARRNAEAKAEWIIRRAKTQAELEKQRIIANARLEVRRKRLAIQEEIISSVLEEVKRRLETMSEDEYFESVKALLKEAIKELNEKKVRVMSNEKTLGLIASRIEEIKSELGDVSIELGETVDTMGGVIVETEDGRIRIDNTFEARMERFEGEIRSTIAKVLFG

From PMC1414084
